We go through one substance from PMC9167922.

Amino acid sequences for entries named in this document (tags omitted). A change or cut given only in a name is not applied to a line headed by its entry.
UniProt Q01814: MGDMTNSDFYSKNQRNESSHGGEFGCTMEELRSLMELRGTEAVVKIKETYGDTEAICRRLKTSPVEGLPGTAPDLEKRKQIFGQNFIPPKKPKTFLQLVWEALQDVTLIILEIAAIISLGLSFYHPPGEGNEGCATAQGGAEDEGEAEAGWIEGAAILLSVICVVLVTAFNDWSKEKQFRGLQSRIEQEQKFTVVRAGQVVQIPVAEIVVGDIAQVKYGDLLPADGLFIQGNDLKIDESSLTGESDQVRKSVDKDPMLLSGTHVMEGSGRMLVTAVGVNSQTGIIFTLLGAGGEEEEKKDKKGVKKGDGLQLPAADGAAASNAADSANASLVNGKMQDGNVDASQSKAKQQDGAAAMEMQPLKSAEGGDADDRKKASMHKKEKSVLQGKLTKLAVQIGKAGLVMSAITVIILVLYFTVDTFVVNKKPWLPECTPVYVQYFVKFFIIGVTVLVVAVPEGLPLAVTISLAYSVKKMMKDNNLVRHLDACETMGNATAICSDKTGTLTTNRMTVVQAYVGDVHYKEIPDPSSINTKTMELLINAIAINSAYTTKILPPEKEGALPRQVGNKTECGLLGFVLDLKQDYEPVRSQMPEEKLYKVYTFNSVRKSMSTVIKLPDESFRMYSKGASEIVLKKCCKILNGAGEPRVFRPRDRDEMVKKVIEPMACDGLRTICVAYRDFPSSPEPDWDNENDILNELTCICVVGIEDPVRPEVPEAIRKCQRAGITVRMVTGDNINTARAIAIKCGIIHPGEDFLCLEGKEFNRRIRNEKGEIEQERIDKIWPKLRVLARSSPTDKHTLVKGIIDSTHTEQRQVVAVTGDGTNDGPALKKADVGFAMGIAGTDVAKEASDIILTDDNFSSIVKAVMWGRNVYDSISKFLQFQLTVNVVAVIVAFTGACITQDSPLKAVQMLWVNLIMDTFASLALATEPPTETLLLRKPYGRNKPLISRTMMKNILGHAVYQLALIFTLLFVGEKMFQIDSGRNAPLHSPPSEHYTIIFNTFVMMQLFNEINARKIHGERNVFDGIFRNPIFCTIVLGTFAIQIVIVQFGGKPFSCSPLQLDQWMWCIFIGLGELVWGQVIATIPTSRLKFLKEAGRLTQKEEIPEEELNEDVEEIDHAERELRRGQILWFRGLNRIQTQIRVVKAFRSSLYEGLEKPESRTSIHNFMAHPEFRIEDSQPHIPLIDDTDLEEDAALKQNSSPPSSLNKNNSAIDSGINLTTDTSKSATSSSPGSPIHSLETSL

This assay addresses PMCA2b fused to GFP (plasma membrane Ca2+-ATPase isoform 2, splice variant b) (UniProt Q01814). The assay can be described thus: co-IP; Lysates of differentiating H19-7 cells expressing PMCA2b-GFP, treated with saline or ketamine (274 uM, 48 h). Precipitated with anti-PMCA2 antibodies and blotted for NMDAR1. Controls: IgG and sepharose beads only.

Results are given in words; binding and its absence hold for the method and conditions named. Binding seen in cells or lysates may run through a third protein. Some binding calls cover weakened binding; strength is not graded here.

Take “NMDA receptor subunit NMDAR1 (from UniProt P35439-1 19-938)”: the binding result is reported as “binds”.
